{"source": "paper PMC11005723", "about": "“Development of Complementary Photo‐arginine/lysine to Promote Discovery of Arg/Lys hPTMs Interactomes” (Advanced Science, 2024)", "test_system": "HEK293T nuclear lysates", "experiment": "SILAC‐based pull‐down proteomics H4K5acK8ac/H4K5 (probes 8/5)", "type": "binding, human", "conditions": "for A6 log2 (H4K5ac8ac/H4K5): replicate A6; for B6 log2 (H4K5ac8ac/H4K5): replicate B6", "key": {"[1]": {"conditions": "Uncharacterized protein (A0A1W2PNV4)"}}, "note": "This continues a long series; more values of the same kind are listed elsewhere.", "data": [{"substance": "probe 8: H4K5acK8ac peptide probe with photo‐arginine R(dz) and K(biotin) (SGRGKGGKGLGKGGK; photo-arginine R(dz) at 3; acetyl-lysine at 5; acetyl-lysine at 8; K(biotin) at 15)", "values": [{"measurement": "A6 log2 (H4K5ac8ac/H4K5)", "setting": "[1]", "value": -0.0618}, {"measurement": "B6 log2 (H4K5ac8ac/H4K5)", "setting": "[1]", "value": 0.1865}, {"measurement": "A6 log2 (H4K5ac8ac/H4K5)", "setting": "protein ACAT1 (A0A5F9ZHJ7)", "value": 0.2924}, {"measurement": "B6 log2 (H4K5ac8ac/H4K5)", "setting": "protein ACAT1 (A0A5F9ZHJ7)", "value": 0.1518}, {"measurement": "A6 log2 (H4K5ac8ac/H4K5)", "setting": "protein ALDOA (P04075)", "value": 0.1612}, {"measurement": "B6 log2 (H4K5ac8ac/H4K5)", "setting": "protein ALDOA (P04075)", "value": 0.1759}, {"measurement": "A6 log2 (H4K5ac8ac/H4K5)", "setting": "protein ATF7IP (Q6VMQ6)", "value": 0.2905}, {"measurement": "B6 log2 (H4K5ac8ac/H4K5)", "setting": "protein ATF7IP (Q6VMQ6)", "value": 0.1962}, {"measurement": "A6 log2 (H4K5ac8ac/H4K5)", "setting": "protein ATP1A1 (P05023)", "value": 0.2256}, {"measurement": "B6 log2 (H4K5ac8ac/H4K5)", "setting": "protein ATP1A1 (P05023)", "value": 0.1538}, {"measurement": "A6 log2 (H4K5ac8ac/H4K5)", "setting": "protein Asun (Q9NVM9)", "value": -0.214}, {"measurement": "B6 log2 (H4K5ac8ac/H4K5)", "setting": "protein Asun (Q9NVM9)", "value": 0.121}, {"measurement": "A6 log2 (H4K5ac8ac/H4K5)", "setting": "protein CAND1 (Q86VP6)", "value": -0.04551}, {"measurement": "B6 log2 (H4K5ac8ac/H4K5)", "setting": "protein CAND1 (Q86VP6)", "value": 0.139}, {"measurement": "A6 log2 (H4K5ac8ac/H4K5)", "setting": "protein CAPZB (B1AK87)", "value": 0.4345}, {"measurement": "B6 log2 (H4K5ac8ac/H4K5)", "setting": "protein CAPZB (B1AK87)", "value": 0.1041}, {"measurement": "A6 log2 (H4K5ac8ac/H4K5)", "setting": "protein CAST (E9PCH5)", "value": -0.07117}, {"measurement": "B6 log2 (H4K5ac8ac/H4K5)", "setting": "protein CAST (E9PCH5)", "value": 0.1827}, {"measurement": "A6 log2 (H4K5ac8ac/H4K5)", "setting": "protein CD2AP (Q9Y5K6)", "value": 0.3843}, {"measurement": "B6 log2 (H4K5ac8ac/H4K5)", "setting": "protein CD2AP (Q9Y5K6)", "value": 0.104}, {"measurement": "A6 log2 (H4K5ac8ac/H4K5)", "setting": "protein CLTC (Q00610)", "value": -0.7564}, {"measurement": "B6 log2 (H4K5ac8ac/H4K5)", "setting": "protein CLTC (Q00610)", "value": 0.2198}, {"measurement": "A6 log2 (H4K5ac8ac/H4K5)", "setting": "protein COPB2 (P35606)", "value": 0.3347}, {"measurement": "B6 log2 (H4K5ac8ac/H4K5)", "setting": "protein COPB2 (P35606)", "value": 0.195}, {"measurement": "A6 log2 (H4K5ac8ac/H4K5)", "setting": "protein CPSF4 (O95639)", "value": -0.06181}, {"measurement": "B6 log2 (H4K5ac8ac/H4K5)", "setting": "protein CPSF4 (O95639)", "value": 0.1145}, {"measurement": "A6 log2 (H4K5ac8ac/H4K5)", "setting": "protein CTBP2 (P56545)", "value": 0.4559}, {"measurement": "B6 log2 (H4K5ac8ac/H4K5)", "setting": "protein CTBP2 (P56545)", "value": 0.2056}, {"measurement": "A6 log2 (H4K5ac8ac/H4K5)", "setting": "protein CTPS1 (B4E1E0)", "value": 0.191}, {"measurement": "B6 log2 (H4K5ac8ac/H4K5)", "setting": "protein CTPS1 (B4E1E0)", "value": 0.1554}, {"measurement": "A6 log2 (H4K5ac8ac/H4K5)", "setting": "protein DDB1 (Q16531)", "value": -0.1673}, {"measurement": "B6 log2 (H4K5ac8ac/H4K5)", "setting": "protein DDB1 (Q16531)", "value": 0.08721}, {"measurement": "A6 log2 (H4K5ac8ac/H4K5)", "setting": "protein DDX5 (J3KTA4)", "value": 0.1359}, {"measurement": "B6 log2 (H4K5ac8ac/H4K5)", "setting": "protein DDX5 (J3KTA4)", "value": 0.1808}, {"measurement": "A6 log2 (H4K5ac8ac/H4K5)", "setting": "protein DDX17 (A0A1X7SBZ2)", "value": 0.037}, {"measurement": "B6 log2 (H4K5ac8ac/H4K5)", "setting": "protein DDX17 (A0A1X7SBZ2)", "value": 0.182}, {"measurement": "A6 log2 (H4K5ac8ac/H4K5)", "setting": "protein DDX39B (Q13838)", "value": -0.002674}, {"measurement": "B6 log2 (H4K5ac8ac/H4K5)", "setting": "protein DDX39B (Q13838)", "value": 0.1671}, {"measurement": "A6 log2 (H4K5ac8ac/H4K5)", "setting": "protein DENR (O43583)", "value": 0.114}, {"measurement": "B6 log2 (H4K5ac8ac/H4K5)", "setting": "protein DENR (O43583)", "value": 0.1523}, {"measurement": "A6 log2 (H4K5ac8ac/H4K5)", "setting": "protein DFFA (O00273)", "value": -0.2825}, {"measurement": "B6 log2 (H4K5ac8ac/H4K5)", "setting": "protein DFFA (O00273)", "value": 0.1945}, {"measurement": "A6 log2 (H4K5ac8ac/H4K5)", "setting": "protein DIS3 (G3V1J5)", "value": 0.07062}, {"measurement": "B6 log2 (H4K5ac8ac/H4K5)", "setting": "protein DIS3 (G3V1J5)", "value": 0.1019}, {"measurement": "A6 log2 (H4K5ac8ac/H4K5)", "setting": "protein DNMT1 (P26358)", "value": 0.2483}, {"measurement": "B6 log2 (H4K5ac8ac/H4K5)", "setting": "protein DNMT1 (P26358)", "value": 0.1378}, {"measurement": "A6 log2 (H4K5ac8ac/H4K5)", "setting": "protein DYNC1I2 (Q13409)", "value": -0.08936}, {"measurement": "B6 log2 (H4K5ac8ac/H4K5)", "setting": "protein DYNC1I2 (Q13409)", "value": 0.1717}, {"measurement": "A6 log2 (H4K5ac8ac/H4K5)", "setting": "protein EEF1B2 (P24534)", "value": -0.1564}, {"measurement": "B6 log2 (H4K5ac8ac/H4K5)", "setting": "protein EEF1B2 (P24534)", "value": 0.08965}, {"measurement": "A6 log2 (H4K5ac8ac/H4K5)", "setting": "protein EIF2S3 (P41091)", "value": -0.0417}, {"measurement": "B6 log2 (H4K5ac8ac/H4K5)", "setting": "protein EIF2S3 (P41091)", "value": 0.1741}, {"measurement": "A6 log2 (H4K5ac8ac/H4K5)", "setting": "protein EIF4H (Q15056)", "value": 0.0492}, {"measurement": "B6 log2 (H4K5ac8ac/H4K5)", "setting": "protein EIF4H (Q15056)", "value": 0.1409}, {"measurement": "A6 log2 (H4K5ac8ac/H4K5)", "setting": "protein EXOSC8 (Q96B26)", "value": 0.7219}, {"measurement": "B6 log2 (H4K5ac8ac/H4K5)", "setting": "protein EXOSC8 (Q96B26)", "value": 0.1391}, {"measurement": "A6 log2 (H4K5ac8ac/H4K5)", "setting": "protein FAM120B (Q96EK7)", "value": 0.6348}, {"measurement": "B6 log2 (H4K5ac8ac/H4K5)", "setting": "protein FAM120B (Q96EK7)", "value": 0.1448}, {"measurement": "A6 log2 (H4K5ac8ac/H4K5)", "setting": "protein FLNA (P21333)", "value": 0.03026}, {"measurement": "B6 log2 (H4K5ac8ac/H4K5)", "setting": "protein FLNA (P21333)", "value": 0.1272}, {"measurement": "A6 log2 (H4K5ac8ac/H4K5)", "setting": "protein FSCN1 (Q16658)", "value": 0.07927}, {"measurement": "B6 log2 (H4K5ac8ac/H4K5)", "setting": "protein FSCN1 (Q16658)", "value": 0.1021}, {"measurement": "A6 log2 (H4K5ac8ac/H4K5)", "setting": "protein FUBP3 (Q96I24)", "value": 0.2633}, {"measurement": "B6 log2 (H4K5ac8ac/H4K5)", "setting": "protein FUBP3 (Q96I24)", "value": 0.1016}, {"measurement": "A6 log2 (H4K5ac8ac/H4K5)", "setting": "protein GLUL (P15104)", "value": 0.2476}, {"measurement": "B6 log2 (H4K5ac8ac/H4K5)", "setting": "protein GLUL (P15104)", "value": 0.09311}, {"measurement": "A6 log2 (H4K5ac8ac/H4K5)", "setting": "protein GRB10 (Q13322)", "value": 0.5675}, {"measurement": "B6 log2 (H4K5ac8ac/H4K5)", "setting": "protein GRB10 (Q13322)", "value": 0.1899}, {"measurement": "A6 log2 (H4K5ac8ac/H4K5)", "setting": "protein HNRNPK (P61978)", "value": 0.1796}, {"measurement": "B6 log2 (H4K5ac8ac/H4K5)", "setting": "protein HNRNPK (P61978)", "value": 0.1868}, {"measurement": "A6 log2 (H4K5ac8ac/H4K5)", "setting": "protein HSPA4 (A0A087WYC1)", "value": 0.08327}, {"measurement": "B6 log2 (H4K5ac8ac/H4K5)", "setting": "protein HSPA4 (A0A087WYC1)", "value": 0.1794}, {"measurement": "A6 log2 (H4K5ac8ac/H4K5)", "setting": "protein IRF2BP2 (Q7Z5L9)", "value": 0.2789}, {"measurement": "B6 log2 (H4K5ac8ac/H4K5)", "setting": "protein IRF2BP2 (Q7Z5L9)", "value": 0.189}, {"measurement": "A6 log2 (H4K5ac8ac/H4K5)", "setting": "protein JUN (P05412)", "value": 0.3522}, {"measurement": "B6 log2 (H4K5ac8ac/H4K5)", "setting": "protein JUN (P05412)", "value": 0.182}, {"measurement": "A6 log2 (H4K5ac8ac/H4K5)", "setting": "protein KIF2C (Q99661)", "value": 0.1411}, {"measurement": "B6 log2 (H4K5ac8ac/H4K5)", "setting": "protein KIF2C (Q99661)", "value": 0.1836}, {"measurement": "A6 log2 (H4K5ac8ac/H4K5)", "setting": "protein KIF4A (O95239)", "value": -0.1665}, {"measurement": "B6 log2 (H4K5ac8ac/H4K5)", "setting": "protein KIF4A (O95239)", "value": 0.1038}, {"measurement": "A6 log2 (H4K5ac8ac/H4K5)", "setting": "protein KPNB1 (Q14974)", "value": -0.1523}, {"measurement": "B6 log2 (H4K5ac8ac/H4K5)", "setting": "protein KPNB1 (Q14974)", "value": 0.1373}, {"measurement": "A6 log2 (H4K5ac8ac/H4K5)", "setting": "protein LASP1 (Q14847)", "value": 0.0311}, {"measurement": "B6 log2 (H4K5ac8ac/H4K5)", "setting": "protein LASP1 (Q14847)", "value": 0.1023}, {"measurement": "A6 log2 (H4K5ac8ac/H4K5)", "setting": "protein LBR (A0A494C1L1)", "value": 0.1625}, {"measurement": "B6 log2 (H4K5ac8ac/H4K5)", "setting": "protein LBR (A0A494C1L1)", "value": 0.1824}, {"measurement": "A6 log2 (H4K5ac8ac/H4K5)", "setting": "protein LETM1 (O95202)", "value": 0.6107}, {"measurement": "B6 log2 (H4K5ac8ac/H4K5)", "setting": "protein LETM1 (O95202)", "value": 0.1117}, {"measurement": "A6 log2 (H4K5ac8ac/H4K5)", "setting": "protein LMNB1 (P20700)", "value": 0.2466}, {"measurement": "B6 log2 (H4K5ac8ac/H4K5)", "setting": "protein LMNB1 (P20700)", "value": 0.1814}]}]}
